Results from publication doi:10.1101/2025.01.07.631699.
Substitutions are numbered along the chain they refer to. No constants are given. Whether binding was seen depends on the method and setting. Some binding calls cover weakened binding; strength is not graded here. Tags and fused reporters may be left off the sequences shown.

Amino acid sequences for entries named in this document (tags omitted).
UniProt Q27497: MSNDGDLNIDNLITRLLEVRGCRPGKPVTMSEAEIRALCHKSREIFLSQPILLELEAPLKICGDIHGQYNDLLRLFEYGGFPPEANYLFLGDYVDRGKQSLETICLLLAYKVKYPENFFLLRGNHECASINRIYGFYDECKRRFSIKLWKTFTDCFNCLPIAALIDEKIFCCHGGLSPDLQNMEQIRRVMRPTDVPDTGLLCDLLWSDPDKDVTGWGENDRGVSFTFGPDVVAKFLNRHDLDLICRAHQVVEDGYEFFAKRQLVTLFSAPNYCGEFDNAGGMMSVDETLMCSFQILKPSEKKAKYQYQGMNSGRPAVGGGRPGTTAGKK
UniProt P48727: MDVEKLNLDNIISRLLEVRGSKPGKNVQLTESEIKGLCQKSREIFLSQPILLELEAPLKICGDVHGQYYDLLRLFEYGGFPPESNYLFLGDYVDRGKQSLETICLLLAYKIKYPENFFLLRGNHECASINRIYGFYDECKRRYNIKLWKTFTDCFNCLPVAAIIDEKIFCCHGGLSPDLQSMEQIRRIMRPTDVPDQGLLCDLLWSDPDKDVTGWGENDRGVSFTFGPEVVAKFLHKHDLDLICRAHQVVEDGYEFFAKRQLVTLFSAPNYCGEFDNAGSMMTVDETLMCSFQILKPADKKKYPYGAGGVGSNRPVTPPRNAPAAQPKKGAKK

What was measured:
[1] = molecular target: T1, Full-length SDS-22 (1-326) E153A mutant fused to the GAL4 DNA binding domain (C. elegans) (UniProt P45969); assay: two-hybrid; GAL4-based yeast two-hybrid (Gateway) in MAV203 yeast; SDS-22 fused to the DNA binding domain (bait), GSP-1 and GSP-2 fused to the activation domain (prey); growth on medium lacking leucine, tryptophan and histidine with 7.5 mM 3-AT
T1 sequence: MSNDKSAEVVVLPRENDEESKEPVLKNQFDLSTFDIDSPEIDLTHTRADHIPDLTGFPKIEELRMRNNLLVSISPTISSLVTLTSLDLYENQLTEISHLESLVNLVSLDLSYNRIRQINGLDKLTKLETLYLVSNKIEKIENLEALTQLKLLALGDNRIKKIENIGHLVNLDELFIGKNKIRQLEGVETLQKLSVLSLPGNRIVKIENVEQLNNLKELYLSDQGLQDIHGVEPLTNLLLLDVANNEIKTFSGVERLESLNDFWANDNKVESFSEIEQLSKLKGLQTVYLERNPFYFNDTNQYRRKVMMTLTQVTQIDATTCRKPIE

[2] = molecular target: T2, Full-length SDS-22 (1-326) wild type fused to the GAL4 DNA binding domain (C. elegans) (UniProt P45969); assay: as above
T2 sequence: T1 sequence with A153E

Substance | binding [1] | binding [2]
GSP-1 (full-length cDNA) fused to the GAL4 activation domain (from UniProt Q27497 1-329) (enzyme) | no binding | binds
GSP-2 (full-length cDNA) fused to the GAL4 activation domain (from UniProt P48727 1-333) (enzyme) | no binding | binds
